Laboratory results taken from publication PMC11998267.
Results are given in words; binding and its absence hold for the method and conditions named. In cells and extracts the contact can be indirect. Some results given as binding are weak or reduced against the parent protein; the word gives no strength.

Sequences of proteins named here, by UniProt entry; tags and fusion partners are left off.
UniProt P67809: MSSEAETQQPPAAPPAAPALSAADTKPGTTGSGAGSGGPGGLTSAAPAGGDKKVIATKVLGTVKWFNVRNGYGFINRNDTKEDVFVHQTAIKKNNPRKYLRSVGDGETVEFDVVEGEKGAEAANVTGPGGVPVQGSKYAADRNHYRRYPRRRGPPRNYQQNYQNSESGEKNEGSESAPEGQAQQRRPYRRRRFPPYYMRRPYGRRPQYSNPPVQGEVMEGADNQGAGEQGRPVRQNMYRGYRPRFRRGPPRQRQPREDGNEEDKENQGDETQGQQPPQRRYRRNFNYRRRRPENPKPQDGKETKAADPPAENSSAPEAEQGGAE

Target: T1, interleukin enhancer-binding factor 3 (human (endogenous in CRC cells)) (UniProt Q12906)
T1 sequence: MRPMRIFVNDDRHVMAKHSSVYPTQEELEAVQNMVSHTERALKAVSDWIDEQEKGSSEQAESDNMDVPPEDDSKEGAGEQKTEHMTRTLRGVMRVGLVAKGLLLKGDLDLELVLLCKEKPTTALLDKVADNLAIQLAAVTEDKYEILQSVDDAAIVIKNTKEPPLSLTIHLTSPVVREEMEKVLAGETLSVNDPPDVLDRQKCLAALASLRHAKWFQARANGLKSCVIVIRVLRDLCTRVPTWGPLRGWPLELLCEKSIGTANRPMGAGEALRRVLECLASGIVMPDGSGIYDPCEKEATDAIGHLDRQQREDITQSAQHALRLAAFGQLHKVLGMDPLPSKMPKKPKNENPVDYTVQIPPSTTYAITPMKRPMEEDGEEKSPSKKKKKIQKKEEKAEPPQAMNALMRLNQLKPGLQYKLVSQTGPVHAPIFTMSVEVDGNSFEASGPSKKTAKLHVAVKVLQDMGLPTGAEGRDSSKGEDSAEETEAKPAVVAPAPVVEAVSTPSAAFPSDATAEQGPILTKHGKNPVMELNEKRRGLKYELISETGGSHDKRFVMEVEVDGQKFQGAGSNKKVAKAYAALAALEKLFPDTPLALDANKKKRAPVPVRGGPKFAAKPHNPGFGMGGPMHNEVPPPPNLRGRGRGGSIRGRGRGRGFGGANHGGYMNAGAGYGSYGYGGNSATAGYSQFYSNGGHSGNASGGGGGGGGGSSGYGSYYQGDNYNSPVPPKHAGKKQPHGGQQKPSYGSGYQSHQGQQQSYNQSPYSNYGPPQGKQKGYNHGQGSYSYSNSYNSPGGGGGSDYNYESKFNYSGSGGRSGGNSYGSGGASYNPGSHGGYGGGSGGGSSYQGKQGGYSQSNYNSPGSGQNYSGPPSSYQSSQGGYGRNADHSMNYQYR
Experiment: co-IP; Co-IP in CRC cells, Western blot; YBX1 co-precipitated with ILF3; also done after LINC02167 knockdown (less YBX1 co-precipitated) or overexpression (more)

## Y-box binding protein 1 (from UniProt P67809 1-324)
  binding: binds
